From PubChem BioAssay AID2685 (National Center for Advancing Translational Sciences (NCATS), 2010)
“And” between values parts separate entries of the source, which are not always exact repeats. Identical values can stand only once. The list shows a part of the results. Shown are side measurements of this screen, not its main read-out; they come without a call. Most of these compounds were active or inconclusive in the main read-out, so they are no random draw. Words in brackets tell the shape of the fitted curve; partial curves, single points and poor fits give uncertain potencies.

Experiment: qHTS Assay for Lipid Storage Modulators in Drosophila S3 Cells;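 on cell number change: cells counted by Cell Tracker Red CMTPX staining in the red channel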
Conditions: BODIPY lipid droplet fluorescence, 18-24 h; for cell number change: measured here: cell count max response, cells fed with added oleic acid
In short: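 Laser-scanning cytometry quantifies lipid droplet accumulation (500–530 nm total intensity; droplet/cell object ratio) in oleic acid-fed (400 uM added) Drosophila S3 cells treated with a concentration series. 20 uM Triacsin C defined 100% inhibition.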

[1] = measured here: cell number channel AC50, cells fed with added oleic acid
[2] = measured here: lipid fluorescence (Fed channel) AC50, cells fed with added oleic acid

SMILES | cell number change | AC50 [1] | AC50 [2]
CCOC(=O)c1c(CN2CCC(C)CC2)n(C)c2cc(Br)c(OC)cc12 | 0.775% | 0.517 µM [rising, full curve, poor fit] | 1.84 µM [rising, partial curve]
CNS(=O)(=O)c1cc(Nc2ncnc3sccc23)ccc1C | -1.05% |  | 0.92 µM [rising, partial curve]
COc1ccc(NC(=O)CN2c3cccc4cccc(c34)S2(=O)=O)c(OC)c1 | 60.8% | 0.291 µM [rising, full curve, poor fit] | 18.4 µM [rising, partial curve]
CC(=O)N1CCN(C(=O)c2cc(S(=O)(=O)NCc3ccccc3)ccc2C)CC1 | 19.4% |  | 
COC(CNC(=O)c1cccnc1)OC | -6.94% |  | 0.517 µM [falling, full curve, poor fit]
CCOC(=O)c1c(-c2ccc(C)cc2)csc1NC(=O)C1CCCO1 (stereo not drawn) |  |  | 0.731 µM [falling, partial curve, poor fit]
O=C(Cc1ccc2c(c1)OCCO2)Nc1cccc(S(=O)(=O)N2CCOCC2)c1 | -1.29% |  | 4.11 µM [falling, partial curve, poor fit]
O=C(CCC(=O)NNC(=O)Nc1cccc(Cl)c1)NCc1ccccc1 | 24.2% |  | 
COc1cc2[nH]c(=O)c(C(=O)NCCCN3CCCCC3)c(O)c2cc1OC | -67.4% | 29.1 µM [falling, single point] | 
CCN(C(=O)Nc1ccccc1OC)c1c(N)n(Cc2ccccc2)c(=O)[nH]c1=O | -46.8% |  | 
Cc1nnc(SCc2ccc(F)cc2)s1 |  |  | 1.16 µM [falling, single point]
Cn1c(CN2CCOCC2)nnc1SCC(=O)Nc1cccc(C(F)(F)F)c1 | 0.87% |  | 29.1 µM [rising, single point]
CCCCNC(=O)c1ccccc1NS(=O)(=O)c1ccc2c(c1)OCCO2 | 40.2% | 25.9 µM [rising, single point] | 
COc1ccc(N(CC(=O)Nc2ccccc2F)S(=O)(=O)c2ccc(OC)c(OC)c2)cc1 | -5.87% |  | 18.4 µM [falling, single point]
O=C(COC(=O)CNC(=O)C1CCCCC1)Nc1ccc(Br)cc1Br | 2.12% | 6.51 µM [falling, single point] | 6.51 µM [falling, single point]
Cc1ccc(-n2c(SCc3ccc([N+](=O)[O-])cc3)nc3ccccc3c2=O)cc1 | 1.52% | 1.64 µM [falling, partial curve] | 
O=C(CN1C(=O)c2ccccc2C1=O)N1CCOCC1 | -3.17% |  | 4.11 µM [falling, partial curve, poor fit]
CC(Sc1nnnn1-c1ccccc1)C(=O)NC1CCCC1 (stereo not drawn) | 5.08% |  | 16.4 µM [falling, single point]
CCOC(=O)c1ccc(Oc2c(C)oc3c(CN4CCN(C)CC4)c(O)ccc3c2=O)cc1 | 0.563% |  | 0.731 µM [falling, full curve, poor fit]
CCCCCc1nnc(NC(=O)C2=COCCO2)s1 | -97.2% | 23.1 µM [falling, single point] | 25.9 µM [falling, single point]

SMILES | cell number change | AC50 [1] | AC50 [2]
Cc1csc(NC(=O)CSc2nnc(NC(=O)COc3ccccc3)s2)n1 |  | 0.58 µM [rising, single point] | 
CC(C)C(Nc1ccc(C(F)(F)F)cc1[N+](=O)[O-])C(=O)O (stereo not drawn) | -10.4% |  | 29.1 µM [falling, partial curve, poor fit]
Cc1ccc(N2CCN(C(=O)c3cccc([N+](=O)[O-])c3)CC2)cc1Cl | 28% |  | 35.5 µM [rising, single point]
Cc1csc(NC(=O)CSc2nnc(NC(=O)NC(C)(C)C)s2)n1 | -18.7% |  | 25.9 µM [falling, partial curve, poor fit]
Fc1ccc(CSc2nnc(Cc3sc(-c4ccccc4)nc3-c3ccccc3)o2)cc1 | 151% | 14.6 µM [rising, partial curve] | 14.6 µM [rising, partial curve]
COc1ccc(OC)c(NC(=O)c2c(NC(=O)c3ccco3)sc3c2CCC3)c1 | -41.1% | 25.9 µM [falling, single point] | 29.1 µM [falling, single point]
Cc1cc(C(c2ccc(O)cc2)c2cc(C)c(O)cc2C)c(C)cc1O | 10.9% |  | 29.1 µM [rising, single point]
COc1ccccc1Oc1ncnc2sccc12 | -42.3% | 32.6 µM [falling, single point] | 29.1 µM [falling, single point]
CCOC(=O)CNC(=O)c1ccc2c(c1)OCCO2 | -20.7% | 0.58 µM [falling, partial curve] | 
O=C(CCCCCNC(=O)N1CCn2c1nc1ccccc12)N[C@H](C(=O)O)c1ccccc1 | 25.4% |  | 0.0651 µM [rising, full curve, poor fit]
C=CCn1c(CNc2ccccc2)nnc1SCC(=O)N/N=C/c1ccccc1O | -15.8% |  | 29.1 µM [falling, single point]
COCCN=C1N[C@@H](c2ccc(Br)cc2)C(C(=O)OC)=C(C)N1Cc1ccccc1 | -19.8% and 15% |  | 29.1 µM [falling, single point] and 29.1 µM [rising, single point]
CSCC[C@H](NC(=O)OC(C)(C)C)c1nnc(SCc2cccc(F)c2)o1 | -40.4% | 29.1 µM [falling, single point] | 
CC(C)(C)NC(=O)C(c1ccco1)N(C(=O)c1csnn1)c1ccccc1 (stereo not drawn) | 13.4% |  | 0.058 µM [falling, full curve, poor fit]
CCOC(=O)c1cc(-c2ccccc2)sc1NC(=O)C(C)N1C(=O)c2ccccc2C1=O (stereo not drawn) | -14.1% |  | 
O=C(C[n+]1cc(-c2ccc(F)cc2)n2c1CCC2)N1c2ccccc2Sc2ccccc21 | 19.2% |  | 32.6 µM [falling, single point]
O=c1[nH]cnc2scc(-c3ccc(-c4ccccc4)cc3)c12 | 0.59% | 0.206 µM [rising, full curve, poor fit] | 
Cc1ccc(C(=O)N2CCC3(CC2)Oc2ccc(Cl)cc2C(=O)C32CC(c3ccccc3)=NO2)s1 (stereo not drawn) | 11.8% |  | 11.6 µM [rising, single point]
CN(C[C@H](Cc1ccccc1)N(C[C@H](Cc1ccccc1)N(CC1(c2ccccc2)CC1)N=O)N=O)N=O | 18.9% |  | 0.731 µM [rising, single point]
COc1cc(C(C[N+](=O)[O-])c2c(C)cc3ccccn23)ccc1O (stereo not drawn) |  |  | 0.82 µM [falling, full curve]

SMILES | cell number change | AC50 [1] | AC50 [2]
Cc1ccc(N2C(=O)[C@@H]3C(c4ccc(F)cc4)=NO[C@@H]3C2=O)cc1 | 7.37% |  | 
O=C(O)CSCC(=O)Nc1ccc(S(=O)(=O)N2CCCCC2)cc1 | -31.4% | 4.61 µM [falling, full curve, poor fit] | 23.1 µM [falling, single point]
C/C(NC1CCCCC1)=C(/C#N)C(=O)NCCN1CCOCC1 | 1.09% |  | 
O=C(CSc1ncn[nH]1)Nc1cccc2ccccc12 | 10.5% | 0.366 µM [rising, partial curve, poor fit] | 0.411 µM [rising, single point]
Cc1ccccc1CN(c1ccc(C(=O)N2CCCC2)cc1)S(C)(=O)=O | 71.1% | 20.6 µM [rising, single point] | 18.4 µM [rising, partial curve]
CCOC(=O)c1c(NC(=O)COC(=O)Cn2cnc3ccccc32)sc2c1CCC(C)C2 (stereo not drawn) |  |  | 6.51 µM [rising, single point]
CSc1nnc2c(n1)OC(c1cn(C)c3ccccc13)N(C(C)=O)c1ccccc1-2 (stereo not drawn) | 13.9% |  | 23.1 µM [falling, partial curve]
Cc1cc(OCC(=O)N[C@@H](Cc2c[nH]c3ccccc23)C(=O)O)c2c(C)c(C)c(=O)oc2c1 | 12.6% |  | 6.51 µM [rising, partial curve, poor fit]
CCn1cc(C2=NOC(C(=O)Nc3cc(OC)c(Cl)cc3OC)C2)c(C)n1 (stereo not drawn) | -19.6% |  | 2.59 µM [falling, partial curve]
CC(C)(C)CC(=O)Nc1cc2c3c(c1)CCC(=O)N3CCC2 | -5.97% |  | 
CCn1cc([N+](=O)[O-])c(C(=O)NCc2ccc(Cl)cc2)n1 | 18.4% |  | 
O=C(CC1C(=O)NCCN1Cc1cccc(Oc2ccccc2)c1)NCCCn1cccn1 (stereo not drawn) | 27.1% |  | 32.6 µM [rising, partial curve, poor fit]
O=C(c1ccco1)N1CCN(S(=O)(=O)c2cccc(C(F)(F)F)c2)CC1 | 2.78% |  | 
CCN1CCN(C(=O)CS(=O)Cc2nc(-c3ccc(OC)cc3)oc2C)CC1 (stereo not drawn) | 1.31% |  | 
COc1cc2[nH]c3ccccc3c2cc1C | -48.9% | 18.4 µM [falling, single point] | 1.84 µM [falling, partial curve]
CC(NC(=O)c1ccccc1Cl)C(=O)Nc1ccc2c(c1)OCO2 (stereo not drawn) | 43% | 13 µM [rising, partial curve] | 
Cn1c(=O)n(/N=C/c2ccccc2)c2ccccc21 | -5.55% |  | 0.103 µM [falling, full curve, poor fit]
CC1=NN(C(=O)Cn2nc([N+](=O)[O-])cc2C)C(O)(C(F)(F)F)C1 (stereo not drawn) | -60.8% | 16.4 µM [falling, partial curve, poor fit] | 1.84 µM [falling, single point]
